Measurements reported in PubChem BioAssay AID1508588 (Peter MacCallum Cancer Centre, 2020)

Screen: 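Genome-wide search for knock-downs that heighten vemurafenib action in melanoma cells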 (primary screen)
System: human WM266.4 melanoma cells (BRAF V600 mutant)
Reagents: siRNA pool against human genes, 40 nM
Timing: 96 h from transfection to read-out
Challenge: vemurafenib 300 nM (about IC25), added 48 h after transfection, for 48 h; comparison arm got DMSO vehicle only
Measurement: 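Ratios to non-targeting siRNA for cell gain, counted as DAPI nuclei after minus before drug and averaged over two replicates, and for absorbance-read medium lactate per cell; both binned into fold-change classes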
Reading the numbers: cell gain with vemurafenib: higher = more cell gain than with non-targeting siRNA; lactate per cell with vemurafenib: higher = more lactate made per cell
Rule for the call: 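Enhancement is called by pairing each knock-down's vehicle-arm and drug-arm fold-change classes for viability or glycolysis; which class combinations qualify is not given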
Calls: active = enhances vemurafenib effect; inactive = no enhancement seen
The deposit covers about 18,000 reagents; shown is a part drawn at random. 790 of them (4.4%) count as active. 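Calls rest on a combination of fold-change classes in drug and vehicle arms, not all shown here.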 No sequences are given here.

| gene symbol | cell gain with vemurafenib | lactate per cell with vemurafenib | Call |
| --- | --- | --- | --- |
| SYNM (synemin) | 0.58 | 0.9 | inactive |
| GABBR1 (gamma-aminobutyric acid type B receptor subunit 1) | 0.76 | 0.56 | inactive |
| MEOX2 (mesenchyme homeobox 2) | 0.57 | 0.56 | inactive |
| CREBBP (CREB binding lysine acetyltransferase) | 0.58 | 1.44 | inactive |
| POLDIP3 (DNA polymerase delta interacting protein 3) | 0.93 | 0.68 | inactive |
| OR7G1 (olfactory receptor family 7 subfamily G member 1) | 0.86 | 0.26 | inactive |
| KLRC1 (killer cell lectin like receptor C1) | 0.22 | 1.05 | inactive |
| HCFC1 (host cell factor C1) | 0.47 | 1.61 | inactive |
| DTX4 (deltex E3 ubiquitin ligase 4) | 1.08 | 0.71 | inactive |
| SLC1A2 | 1.03 | 0.94 | inactive |
| SYNE1 (spectrin repeat containing nuclear envelope protein 1) | 0.77 | 0.82 | inactive |
| RAD54B (RAD54 homolog B) | 0.55 | 1.15 | inactive |
| FAM171B (family with sequence similarity 171 member B) | 0.99 | 0.66 | inactive |
| SH3BP5L (SH3 binding domain protein 5 like) | 0.67 | 1.41 | inactive |
| UPK2 (uroplakin 2) | 0.42 | 1.4 | inactive |
| LIMA1 (LIM domain and actin binding 1) | 0.91 | 0.46 | inactive |
| RPA2 (replication protein A2) | 0.08 | 1.52 | inactive |
| AQP4 (aquaporin 4) | 0.5 | 2.24 | inactive |
| TCEAL5 (transcription elongation factor A like 5) | 0.29 | 0.71 | inactive |
| SLC35A5 | 0.08 | 1.77 | inactive |
| IBTK (inhibitor of Bruton tyrosine kinase) | 0.58 | 1.38 | inactive |
| ARPC3 (actin related protein 2/3 complex subunit 3) | 0.94 | 0.79 | inactive |
| ADGRE2 (adhesion G protein-coupled receptor E2) | 0.75 | 0.75 | inactive |
| P2RY2 (purinergic receptor P2Y2) | 0.7 | 0.68 | inactive |
| PPP3R2 (protein phosphatase 3 regulatory subunit B, beta) | 1.03 | 1.32 | inactive |
| LINGO2 (leucine rich repeat and Ig domain containing 2) | 0.47 | 1.97 | inactive |
| TNMD (tenomodulin) | 0.57 | 0.71 | inactive |
| SNX29P1 (sorting nexin 29 pseudogene 1) | 0.37 | 1.06 | inactive |
| TMEM41A (transmembrane protein 41A) | 0.64 | 0.89 | inactive |
| GCDH (glutaryl-CoA dehydrogenase) | 0.86 | 1.36 | inactive |
| FOLR1 (folate receptor alpha) | 0.23 | 1.45 | inactive |
| SNRPC (small nuclear ribonucleoprotein polypeptide C) | 0.14 | 1.4 | inactive |
| SNTN (sentan, cilia apical structure protein) | 0.96 | 0.67 | inactive |
| PNN (pinin, desmosome associated protein) | 0.19 | 1.09 | inactive |
| NEUROG3 (neurogenin 3) | 0.75 | 0.96 | inactive |
| TAT (tyrosine aminotransferase) | 0.93 | 0.62 | inactive |
| SPDYC (speedy/RINGO cell cycle regulator family member C) | 1.07 | 0.74 | inactive |
| LCN8 (lipocalin 8) | 0.32 | 1.07 | inactive |
| GIPC1 (GIPC PDZ domain containing family member 1) | 0.58 | 0.4 | active |
| FAM181B (family with sequence similarity 181 member B) | 1.03 | 0.89 | inactive |
| CD99 (CD99 molecule (Xg blood group)) | 0.27 | 1.14 | inactive |
| RPIA (ribose 5-phosphate isomerase A) | 0.72 | 1 | inactive |
| PIGN (phosphatidylinositol glycan anchor biosynthesis class N) | 0.83 | 0.76 | inactive |
| ACTN3 (actinin alpha 3) | 0.42 | 0.35 | inactive |
| MAB21L2 (mab-21 like 2) | 0.42 | 1.73 | inactive |

Active calls (from the list above):
| gene symbol | cell gain with vemurafenib | lactate per cell with vemurafenib | Call |
| --- | --- | --- | --- |
| GIPC1 (GIPC PDZ domain containing family member 1) | 0.58 | 0.4 | active |

More reagents follow.
| gene symbol | cell gain with vemurafenib | lactate per cell with vemurafenib | Call |
| --- | --- | --- | --- |
| SREK1 (splicing regulatory glutamic acid and lysine rich protein 1) | 1.04 | 0.92 | inactive |
| MYL12A (myosin light chain 12A) | 0.1 | 0.86 | inactive |
| CFC1 (cryptic, EGF-CFC family member 1) | 0.4 | 0.92 | inactive |
| MCM10 (minichromosome maintenance 10 replication initiation factor) | 0.01 | 1.56 | inactive |
| INTS11 (integrator complex subunit 11) | 0.02 | 0.96 | inactive |
| ALPG (alkaline phosphatase, germ cell) | 0.43 | 1.24 | inactive |
| MAGEB10 (MAGE family member B10) | 0.29 | 0.48 | inactive |
| RHOC (ras homolog family member C) | 0.36 | 1.75 | inactive |
| INPP5B (inositol polyphosphate-5-phosphatase B) | 0.43 | 1 | inactive |
| TTC7B (tetratricopeptide repeat domain 7B) | 0.44 | 1.16 | inactive |
| FBLN2 (fibulin 2) | 0.27 | 1.26 | inactive |
| CLIP4 (CAP-Gly domain containing linker protein family member 4) | 0.48 | 0.66 | inactive |
| POU3F2 (POU class 3 homeobox 2) | 0.6 | 0.54 | inactive |
| PAEP (progestagen associated endometrial protein) | 0.46 | 0.18 | active |
| GPR156 (G protein-coupled receptor 156) | 0.33 | 1.75 | inactive |
| DNAI1 (dynein axonemal intermediate chain 1) | 0.72 | 1.25 | inactive |
| HTRA4 (HtrA serine peptidase 4) | 0.67 | 1.06 | inactive |
| ZC3H11A (zinc finger CCCH-type containing 11A) | 0.39 | 1.24 | inactive |
| TOMM70 (translocase of outer mitochondrial membrane 70) | 0.54 | 0.84 | inactive |
| HLA-DQA2 (major histocompatibility complex, class II, DQ alpha 2) | 0.4 | 0.9 | inactive |
| CWC22 (CWC22 spliceosome associated protein) | 0.11 | 0.29 | inactive |
| MIR99AHG (mir-99a-let-7c cluster host gene) | 0.36 | 0.36 | inactive |
| OPA1 (OPA1 mitochondrial dynamin like GTPase) | 0.22 | 1.09 | inactive |
| IL21R (interleukin 21 receptor) | 0.59 | 1.87 | inactive |
| RPL18 (ribosomal protein L18) | -0.08 | 3.04 | inactive |
| RIC8A (RIC8 guanine nucleotide exchange factor A) | 0.53 | 1.34 | inactive |
| CHD4 (chromodomain helicase DNA binding protein 4) | 0.36 | 1.66 | inactive |
| ZNF197 (zinc finger protein 197) | 0.32 | 0.87 | inactive |
| ZBED8L (ZBED8 like) | 0.51 | 0.56 | inactive |
| IL23A (interleukin 23 subunit alpha) | 0.42 | 1.92 | inactive |
| SGK2 (serum/glucocorticoid regulated kinase 2) | 0.92 | 1.32 | inactive |
| SKA2 (spindle and kinetochore associated complex subunit 2) | 0.21 | 1.51 | inactive |
| MLLT3 (MLLT3 super elongation complex subunit) | 0.9 | 1.27 | inactive |
| POLE4 (DNA polymerase epsilon 4, accessory subunit) | 0.63 | 0.7 | inactive |
| ACY1 (aminoacylase 1) | 0.49 | 0.62 | inactive |
| CLVS1 (clavesin 1) | 0.28 | 1.64 | inactive |
| ANKRD36 (ankyrin repeat domain 36) | 1 | 0.45 | inactive |
| ALDH4A1 (aldehyde dehydrogenase 4 family member A1) | 0.76 | 0.86 | inactive |
| FUBP1 (far upstream element binding protein 1) | 1.04 | 0.6 | inactive |
| PAGR1 (PAXIP1 associated glutamate rich protein 1) | 0.04 | 1.78 | inactive |
| FRY (FRY microtubule binding protein) | 0.87 | 0.98 | inactive |
| ARFGAP1 (ARF GTPase activating protein 1) | 0.25 | 1.26 | inactive |
| HDAC3 (histone deacetylase 3) | 0.43 | 0.74 | inactive |
| AP3B1 (adaptor related protein complex 3 subunit beta 1) | 0.22 | 2.05 | inactive |
| GABRB1 (gamma-aminobutyric acid type A receptor subunit beta1) | 0.38 | 0.6 | active |
| ARL2BP (ARF like GTPase 2 binding protein) | 0.61 | 0.84 | inactive |
| CYSRT1 (cysteine rich tail 1) | 0.71 | 1.55 | inactive |
| MAP4K3 (mitogen-activated protein kinase kinase kinase kinase 3) | 0.3 | 0.9 | inactive |
| DIPK1A (divergent protein kinase domain 1A) | 0.72 | 0.72 | inactive |
| PHF8 (PHD finger protein 8) | 0.4 | 2.05 | inactive |
| PROK2 (prokineticin 2) | 0.45 | 0.7 | inactive |
| MRPL24 (mitochondrial ribosomal protein L24) | 0.49 | 0.84 | inactive |
| SNX4 (sorting nexin 4) | 0.58 | 1 | inactive |
| NOL8 (nucleolar protein 8) | 0.15 | 0.7 | active |
| EHMT2 (euchromatic histone lysine methyltransferase 2) | 0.39 | 1.36 | inactive |
| GUK1 (guanylate kinase 1) | 0.37 | 0.4 | inactive |
| COLGALT1 (collagen beta(1-O)galactosyltransferase 1) | 0.51 | 1.08 | inactive |
| H1-6 (H1.6 linker histone, cluster member) | 0.95 | 0.57 | inactive |
| VEPH1 (ventricular zone expressed PH domain containing 1) | 0.29 | 1.15 | inactive |
| RAB3GAP1 (RAB3 GTPase activating protein catalytic subunit 1) | 0.86 | 0.57 | inactive |
| DYRK4 (dual specificity tyrosine phosphorylation regulated kinase 4) | 1.13 | 1.07 | inactive |
| SLC35F2 | 0.41 | 1.18 | inactive |
